Measured values from article PMC10564737, “Structure-based design of a phosphotyrosine-masked covalent ligand targeting the E3 ligase SOCS2” (Nature Communications, 2023).
Values joined by “and” are separate entries in the source; they are usually repeats but may differ in a detail not shown here. Identical values can stand only once. This continues a long series; more values of the same kind are listed elsewhere.

Protein sequences, listed by entry. Tags and fused reporters are not part of them. Residues count along the entry.
UniProt O14508, 32-198: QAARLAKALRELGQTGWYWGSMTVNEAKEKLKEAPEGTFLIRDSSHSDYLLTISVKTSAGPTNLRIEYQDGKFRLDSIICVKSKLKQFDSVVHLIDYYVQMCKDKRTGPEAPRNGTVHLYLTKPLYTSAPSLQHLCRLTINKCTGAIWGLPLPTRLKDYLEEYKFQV

Target: T1, SBC2 (Homo sapiens, UniProt O14508)
T1 construct: SOCS2 (amino acids 32–198); His6 (N, cleaved yes); made in house; host or cells: E. coli BL21(DE3)
Assay: Covalent fluorescence polarization (FP) probe displacement assay
Assay type: binding
Text: With the specific covalent modification of Cys111 established, we decided to fully characterize MN551 as a covalent SOCS2 inhibitor. […] (Fig. 2g, h, Supplementary Fig. 9). Due to the covalent nature of the competing inhibitor, a time-dependent reduction in the fraction of protein-bound probe is observed. […] This value illustrates reasonable specificity for a covalent inhibitor, with nonetheless scope for future optimization. In addition to characterizing the kinetic covalency parameters, we have also assessed the stability of the MN551 by monitoring its reactivity (half-life >70 min) with reduced glutathione (GSH) (Supplementary Fig. 10)[35].
To monitor the SBC2-ligand binding kinetics we designed a fluorescein-labeled small-molecule probe - compound 26. The fluorescence polarization (anisotropy) of a threefold serial dilution of 50 µM SBC2 in 10 nM of the probe in 100 mM HEPES pH 7.5, 50 mM NaCl, 0.5 mM TCEP, 2% DMSO was measured to determine the KL (Supplementary Fig. 9A) (BMG Labtech PHERAstar – firmware v1.33). Protein titration and the curves were fitted using GraphPad Prism 9, using one-site fitting models to determine the probe binding constant, KL. Samples were run in triplicate in 384 well plates, using a total volume per well of 16 μL. The bound fraction of the probe is measure using the equation:1 Fb=Af−A/Af−Ab Where,
A time-dependent reduction in probe anisotropy were measured for a 2-fold serial dilution of […] compound MN551 in 10 nM probe +300 μM SBC2. To determine the initial reversible binding affinity, the initial bound fraction of the probe at time = 0, Fbo (the y-intercept in Fb v/s Time plot, Supplementary Fig. 9B) was plotted against MN551 concentration, and the obtained IC50 is then converted to Ki (Supplementary Fig. 9C)[17]. The slope from Fb versus time graph when divided by Fbo gives rate of covalency, kobs. A plot of kobs v/s MN551 concentration using Michaelis–Menten model of GraphPad Prism 9, provides the parameters kinact (maximum potential rate of inactivation) and KI (concentration of MN551 at which kobs = kinact/2) (Supplementary Fig. 9D, E).
The observed first-order rate constant, kobs is related to KI and kinact by the equation:2 kobs=kinactI/KI+I
At [I]«[KI] the above equation is converted to3 […]
The slope from the plot of kobs against concentration of MN551 gives us the covalent efficiency parameter kinact/KI (Supp Fig. 9F)[30],[33].

[1] = MN551 12.207 nM, Cycle 8 (35 min)
[2] = MN551 12.207 nM, Cycle 9 (40 min)
[3] = MN551 12.207 nM, Cycle 10 (45 min)
[4] = MN551 12.207 nM; Cycle 6 (25 min)
[5] = MN551 12.207 nM; Cycle 7 (30 min)
[6] = MN551 12.207 nM; Cycle 8 (35 min)
[7] = MN551 12.207 nM; Cycle 9 (40 min)
[8] = MN551 12.207 nM; Cycle 10 (45 min)
[9] = MN551 12.207 nM; Cycle 12 (55 min); n=1
[10] = MN551 12.207 nM; Cycle 13 (60 min); n=1
[11] = MN551 12.207 nM; Cycle 14 (65 min); n=1
[12] = MN551 12.207 nM; Cycle 15 (70 min); n=1
[13] = MN551 12.207 nM; Cycle 16 (75 min); n=1
[14] = MN551 12.599 nM, Cycle 8 (35 min)
[15] = MN551 12.599 nM, Cycle 9 (40 min)
[16] = MN551 12.599 nM, Cycle 10 (45 min)
[17] = MN551 12.599 nM, Cycle 11 (50 min)
[18] = MN551 12.599 nM, Cycle 15 (70 min), n=1
[19] = MN551 12.599 nM, Cycle 16 (75 min), n=1
[20] = MN551 12.599 nM, Cycle 17 (80 min), n=1
[21] = MN551 12.599 nM; Cycle 6 (25 min)
[22] = MN551 12.599 nM; Cycle 7 (30 min)

In the case of `O=C(CCl)Nc1cccc(CNC(=O)[C@H](Cc2ccc(OP(=O)(O)O)cc2)NC(=O)Cc2ccc(F)cc2)c1` [MN551], the Anisotropy (12.207 nM MN551, Cycle 6 (25 min)) is reported as 283, the Anisotropy (12.599 nM MN551, Cycle 5 (20 min)) is reported as 275.6 and the Anisotropy (34.5716 nM MN551, Cycle 2 (5 min)) is reported as 284.7. It also gave an Anisotropy (34.5716 nM MN551, Cycle 5 (20 min)) of 278.5, an Anisotropy (48.4003 nM MN551, Cycle 2 (5 min)) of 287 and an Anisotropy (67.7604 nM MN551, Cycle 6 (25 min)) of 279.2. It also gave an Anisotropy (260.308 nM MN551, Cycle 3 (10 min)) of 275.8, an Anisotropy (714.286 nM MN551, Cycle 6 (25 min)) of 259.7 and an Anisotropy (50000 nM MN551, Cycle 5 (20 min)) of 180. For the same compound, the Fb (MN551 12.207 nM, Cycle 7 (30 min)) was 0.8762 and 0.9543 and 0.9614, the “Anisotropy based on Raw Data (485)” value [1] was 280.2 and 279.7 and 276 and the Fb [1] was 0.873 and 0.9618 and 0.9377. The “Anisotropy based on Raw Data (485)” value [2] was 278.9 and 277.7, the Fb [2] was 0.8547 and 0.972 and 0.9659 and the “Anisotropy based on Raw Data (485)” value [3] was 278.9 and 279.3 and 275.1. The Fb [3] was 0.8539 and 0.9632 and 0.9592, the “Anisotropy based on Raw Data (485)” value (MN551 12.207 nM, Cycle 11 (50 min)) was 277.1 and 278.1 and 275.7 and the Anisotropy (MN551 12.207 nM, Cycle 13 (60 min), n=1) was 277.3 and 276.9 and 279. For the same compound, the Anisotropy (MN551 12.207 nM, Cycle 14 (65 min), n=1) was 276 and 276.8 and 279.6, the Anisotropy (MN551 12.207 nM, Cycle 15 (70 min), n=1) was 277.3 and 276.2 and 278.2 and the Anisotropy (MN551 12.207 nM, Cycle 17 (80 min), n=1) was 276 and 273.5 and 277. For the same compound, the “Fb, fraction bound” value (MN551 12.207 nM; Cycle 3 (10 min)) was 1.009 and 1.005 and 1.027, the “Fb, fraction bound” value (MN551 12.207 nM; Cycle 4 (15 min)) was 0.9952 and 0.99 and 0.9945 and the “Fb, fraction bound” value (MN551 12.207 nM; Cycle 5 (20 min)) was 0.9814 and 1.012 and 0.9945. For the same compound, the “Anisotropy data 485,520,520” value [4] was 276.1 and 280.2 and 280.4, the Fb [4] was 0.9636 and 0.9815 and 0.98 and the “Fb, fraction bound” value [4] was 0.9962 and 1.035 and 1.011. For the same compound, the Anisotropy [5] was 280 and 281.1 and 284.4, the “Anisotropy data 485,520,520” value [5] was 273.8 and 278 and 276 and the Fb [5] was 0.9861 and 0.9826 and 0.9875 and 0.9981 and 1.0131 and 1.041. The Anisotropy [6] was 279 and 281.2 and 281.4, the “Anisotropy data 485,520,520” value [6] was 273.1 and 278.2 and 278.4 and the Fb [6] was 0.9611 and 0.9753 and 1.003 and 0.9952 and 1.006 and 1.0169. For the same compound, the Anisotropy [7] was 278.8 and 281.2 and 281.3, the “Anisotropy data 485,520,520” value [7] was 273.5 and 276.3 and 274.8 and the Fb [7] was 0.989 and 0.9708 and 0.9746 and 0.9802 and 1.022 and 1.027. For the same compound, the Anisotropy [8] was 279.5 and 278.1 and 281.2, the “Anisotropy data 485,520,520” value [8] was 272.2 and 279 and 274.1 and the Fb [8] was 0.9929 and 1.007 (2×) and 0.9798 and 0.9971 and 1.029. For the same compound, the Anisotropy (MN551 12.207 nM; Cycle 11 (50 min); n=1) was 272.7 and 277 and 274.7, the Anisotropy (MN551 12.207 nM; Cycle 12 (55 min)) was 277.6 and 277.2 and 280.3 and the Anisotropy [9] was 273.5 and 276.9 and 272. The “Anisotropy based on Raw Data (485)” value [9] was 276.3 and 276.5 and 275.2, the Anisotropy [10] was 272.6 and 275.5 and 274.9 and the “Anisotropy based on Raw Data (485)” value [10] was 275.8 and 277.2 and 270.4. The Anisotropy [11] was 271 and 274.1 and 272.7, the “Anisotropy based on Raw Data (485)” value [11] was 275.3 and 275.1 and 271.8 and the Anisotropy [12] was 268.7 and 270.7 and 271.4. For the same compound, the “Anisotropy based on Raw Data (485)” value [12] was 275.5 and 273.3 and 273.2, the Anisotropy [13] was 275.3 and 273.7 and 276.8 and the “Anisotropy based on Raw Data (485)” value [13] was 272.6 and 274.8 and 271.8. The “Anisotropy data 485,520,520” value (MN551 12.207 nM; Cycle 19 (90 min); n=1) was 272.5 and 274.4 and 274.1, the “Anisotropy data 485,520,520” value (MN551 12.207 nM; Cycle 20 (95 min); n=1) was 273.7 and 274.7 and 273.8 and the Fb (MN551 12.599 nM, Cycle 7 (30 min)) was 0.9121 and 0.9206 and 0.9551. For the same compound, the “Anisotropy based on Raw Data (485)” value [14] was 271.3 and 272.5 and 269.8, the Fb [14] was 0.9023 and 0.9183 and 0.91 and the “Anisotropy based on Raw Data (485)” value [15] was 271.7 and 273.9 and 270.9. The Fb [15] was 0.9192 and 0.9205 and 0.9283, the “Anisotropy based on Raw Data (485)” value [16] was 270.9 and 269.5 and the Fb [16] was 0.9269 and 0.9411 and 0.952. For the same compound, the “Anisotropy based on Raw Data (485)” value [17] was 269 and 270.1 and 268.2, the Fb [17] was 0.9222 and 0.9146 and 0.9293 and the Anisotropy (MN551 12.599 nM, Cycle 13 (60 min), n=1) was 277.9 and 274.8 and 274.2. The Anisotropy (MN551 12.599 nM, Cycle 14 (65 min), n=1) was 278.8 and 276.4 and 274.2, the Anisotropy [18] was 275.5 and 274.4 and 272.9 and the “Normalised anisotropy (0 nM MN551 = 1, free probe = 0)” value [18] was 1.027 and 0.9981 and 0.9952. The Anisotropy [19] was 277.4 and 276.1 and 272.3, the “Anisotropy based on Raw Data (485)” value [19] was 269.5 and 268.6 and 265.3 and the “Normalised anisotropy (0 nM MN551 = 1, free probe = 0)” value [19] was 1.018 and 1.031 and 0.9885. The Anisotropy [20] was 274.3 and 273.6 and 271, the “Normalised anisotropy (0 nM MN551 = 1, free probe = 0)” value [20] was 1.014 and 0.999 and 1.005 and the “Fb, fraction bound” value (MN551 12.599 nM; Cycle 3 (10 min)) was 1.02 and 1.03 and 1.008. The “Fb, fraction bound” value (MN551 12.599 nM; Cycle 4 (15 min)) was 1.038 and 1.003 and 1.011, the “Fb, fraction bound” value (MN551 12.599 nM; Cycle 5 (20 min)) was 1.026 and 1.001 and 1.008 and the “Anisotropy data 485,520,520” value [21] was 275.2 and 272.5 and 273.1. For the same compound, the Fb [21] was 0.9676 and 0.9735 and 1.0203, the “Fb, fraction bound” value [21] was 1.025 and 1.019 and 1.007 and the Anisotropy [22] was 283.2 and 280.9 and 281. For the same compound, the “Anisotropy data 485,520,520” value [22] was 273.5 and 268.7 and 271.9 and the Fb [22] was 0.9678 and 0.9687 and 1.015 and 1.006 and 1.012 and 1.035.
